# Library screen at single concentrations

Measurements from “University of Dundee, Small-Polar-MMV Screening Library” (2021), ChEMBL document CHEMBL3988442.

Mtb cholesterol medium: 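Growth of Mycobacterium tuberculosis over 4 days (cholesterol / DPPC medium with tyloxapol); the read-out is not stated. Compounds at 50 µM. The record gives no direction; compounds that gave an IC50 in retests scored well above the rest, so higher reads as more growth inhibition. Of about 69,000 compounds tested this way, about 370 (0.54%) reached 50% or more in at least one test.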
Mtb glucose medium: 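Phenotypic screen: M. tuberculosis growth, glucose 7H9 medium, 3 days; the read-out is not stated. Concentration: 50 µM. Direction is inferred from retests: higher values go with more growth inhibition. About 69,000 compounds were tested under these conditions; 1.1% (about 760) showed 50% or more at least once.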

Each number is a percent effect as filed.
The record does not define 0% and 100%; most values in the screen are far below 50% and negative numbers occur (in some assays of this library far below -100).
This is an unselected part of the compounds tested.
Two or more numbers in one place are separate tests of the same structure; such repeats can differ widely.

Result for Cc1cn2c(n1)C(CNCc1cnn3ccccc13)CCC2 (stereo not given) was Mtb cholesterol medium: 14.63%; Mtb glucose medium: -3.933% and -1.367%. Result for O=C(O)C(F)(F)F.O=C(O)C(F)(F)F.O[C@@H]1CCN(CC2CCOC2)[C@H]1Cc1cccnc1 (stereo not given in full) was Mtb cholesterol medium: 3.194%; Mtb glucose medium: 4.085% and -5.95%. Cc1ccc(CNC(c2ccccc2)c2nccn2C)cc1.Cl (stereo not given) gave Mtb cholesterol medium: 12.96%; Mtb glucose medium: 5.191%. For Cc1ccc(C(=O)N2CCSCC2)cc1NC(=O)NCCO the result was Mtb cholesterol medium: -22.94%; Mtb glucose medium: -11.56%. With CCC[C@H]1CN(S(C)(=O)=O)C[C@@H]1NC(=O)c1ccc(COC)cc1 the screen gave Mtb cholesterol medium: 17.4%; Mtb glucose medium: -1.353%. With CCCc1nc(C[S+]([O-])Cc2cn3cccc(C)c3n2)no1 (stereo not given) the screen gave Mtb cholesterol medium: 17.67%; Mtb glucose medium: 28.92%. For O=C(O)CCc1cc2n(n1)CCN(Cc1ccc3[nH]ccc3c1)C2 the result was Mtb cholesterol medium: -4.903% and -17.34%; Mtb glucose medium: -20.96%.

COc1ccc(OC)c([C@@H]2N[C@H](c3nccs3)Cc3ccsc32)c1 read Mtb cholesterol medium: 4.842% and -1.894%; Mtb glucose medium: 2.991%. Result for CC(C(=O)N1CCCC1)S(=O)(=O)Cc1noc(C(C)(C)C)n1 (stereo not given) was Mtb cholesterol medium: 15.16%; Mtb glucose medium: 12.63%. With CC(C)CCNC(=O)CNC(=O)N1CCc2c([nH]c3ccc(Cl)cc23)C1 the screen gave Mtb cholesterol medium: -33.2%; Mtb glucose medium: -10.5%. [H][C@]12CC[C@]([H])(CN(C(=O)C3CCC3)C1)N(Cc1cnc(NCC)nc1)C2 gave Mtb cholesterol medium: 12.98%; Mtb glucose medium: 11.64%. CC(C)C1CN(c2ncccc2Cl)CCC(=O)N1Cc1ccc(F)cc1 (stereo not given) gave Mtb cholesterol medium: -20.02%; Mtb glucose medium: -0.1749% and 4.356%. O=C(O)[C@@H]1CN(C(=O)c2ccc3nccnc3c2)C[C@H]1c1ccncc1 gave Mtb cholesterol medium: 12.91%; Mtb glucose medium: 17.43%. Cc1cnn(CC2CN(CC(=O)Nc3c(C)nn(C)c3C)CCO2)c1 (stereo not given) read Mtb cholesterol medium: 15.7%; Mtb glucose medium: -2.501% and 11.14%.

COc1ccc(CN2CCCn3cncc3C2)cc1Cn1cncn1 read Mtb cholesterol medium: -10.11%; Mtb glucose medium: -2.011%. Cc1cccc(CN2C[C@@H](CN3CCCN(C)CC3)C[C@H](CO)C2)n1 gave Mtb cholesterol medium: 73.32%; Mtb glucose medium: -0.5551%. Result for Cc1cnn(CCNCc2ccc(OCc3noc(C)n3)cc2)c1 was Mtb cholesterol medium: 8.28% and -9.331%; Mtb glucose medium: 18.78%. c1cc(CNCc2ccnc(N3CCCCC3)c2)c2c(c1)OCCCO2 read Mtb cholesterol medium: -5.306%; Mtb glucose medium: 13.27%. Result for CCOC(=O)COc1nc(CC(C)C)c2c(c1C#N)CCC2 was Mtb cholesterol medium: 35.88%; Mtb glucose medium: 24.35%. COc1cc(C)cc(-c2nc3c([nH]2)CCNC3)c1OC gave Mtb cholesterol medium: -19.07%; Mtb glucose medium: 4.948%. O=C(NC1CCN(c2ncccc2F)C1)c1cccc(-n2ccnn2)c1 (stereo not given) gave Mtb cholesterol medium: -3.694%; Mtb glucose medium: -6.506%.

O=C(CCn1ccccc1=O)Nc1ccc(F)c(Cl)c1 read Mtb cholesterol medium: -5.731%; Mtb glucose medium: -2.114%. [H][C@@]12CN(Cc3cccnc3)CCO[C@]1([H])CN(C(=O)c1cnccn1)C2 read Mtb cholesterol medium: -7.647%; Mtb glucose medium: -17.46%. Result for COc1ccccc1CC(=O)N1CCCC(n2nc(C)cc2C)C1 (stereo not given) was Mtb cholesterol medium: 17.82%; Mtb glucose medium: 4.225%. For Cc1cccc(C2CCCN2C(=O)CCS(C)(=O)=O)c1C (stereo not given) the result was Mtb cholesterol medium: -20.2%; Mtb glucose medium: 1.252%. Result for CCc1c(C(=O)N2CC(C)OC(C)(C)C2)cnn1-c1ccccn1 (stereo not given) was Mtb cholesterol medium: -12.47%; Mtb glucose medium: 13.22%. With O=C(O)C(F)(F)F.[H][C@]12CCN(C(=O)c3ccc4[nH]ccc4c3)C[C@@]1([H])OCCN(CC)C2 the screen gave Mtb cholesterol medium: 5.493%; Mtb glucose medium: 12.1%. CC(=O)Nc1nc(C(=O)NCc2ccnc(N3CCCC3)c2)cs1 gave Mtb cholesterol medium: -20.38%; Mtb glucose medium: -15.77%.

For CCN(Cc1nc2c(cnn2C)c(=O)[nH]1)c1ccc(F)cc1 the result was Mtb cholesterol medium: -10.86%; Mtb glucose medium: -14.84%. Result for CCN(c1ccc(C(=O)NCCN2CCOCC2)cc1)S(=O)(=O)CC was Mtb cholesterol medium: -13.95%; Mtb glucose medium: -12.46%. Cc1noc(C)c1CC(=O)N1CCCC(c2noc(C(C)C)n2)C1 (stereo not given) read Mtb cholesterol medium: -8.133%; Mtb glucose medium: -3.712% and 2.796%. With O=C(O)C(F)(F)F.O=C(O)C(F)(F)F.[H][C@@]12OCCN(Cc3ccoc3)[C@@]1([H])CCC2COCc1cccnc1 (stereo not given in full) the screen gave Mtb cholesterol medium: -29.97%; Mtb glucose medium: -55.71%. CC(CN1CCCC1=O)NC(=O)c1cc(Cl)c2c(c1)OCO2 (stereo not given) gave Mtb cholesterol medium: 19.22%; Mtb glucose medium: 41.05%. With Cc1n[nH]c(C)c1CCC(=O)NCC1(O)CCN(c2ccccn2)C1 (stereo not given) the screen gave Mtb cholesterol medium: 7.673%; Mtb glucose medium: 4.956%. CC1COCCN1C(=O)COc1ccc(Oc2ccccn2)cc1 (stereo not given) read Mtb cholesterol medium: 2.107%; Mtb glucose medium: 4.738%.

For Cn1cccc(NC(=O)NCc2cccc(CO)c2)c1=O the result was Mtb cholesterol medium: 3.797%; Mtb glucose medium: -0.3231% and 12.96%. With O=C(NCc1nc(C2CC2)no1)N1CCOC(c2ccccc2F)C1 (stereo not given) the screen gave Mtb cholesterol medium: -2.33%; Mtb glucose medium: -1.906% and 0.5581%. For CN(CC(=O)NC1CCOCC1)C1CCCN(c2cccnn2)C1 (stereo not given) the result was Mtb cholesterol medium: -8.456%; Mtb glucose medium: -8.212%. Cc1nc2cc(F)ccc2cc1C(=O)N1CCN(CC(C)O)CC1 (stereo not given) read Mtb cholesterol medium: 14.55%; Mtb glucose medium: -29.06% and -9.462%. Cc1ccnn1CC(=O)N1CCN(C2CCc3ccccc3C2)CC1 (stereo not given) read Mtb cholesterol medium: -21.52% and -6.724%; Mtb glucose medium: -3.209% and -41.17%. For O=C(Cn1cccn1)N1CCC(Cn2cc(-c3ccsc3)nn2)CC1 the result was Mtb cholesterol medium: 1.136%; Mtb glucose medium: -11.61% and 34.68%. With CN(C)CCN1CCOCC2(CCCN(C(=O)c3ccccc3)C2)C1.O=C(O)C(F)(F)F.O=C(O)C(F)(F)F (stereo not given) the screen gave Mtb cholesterol medium: -3.289%; Mtb glucose medium: 15.69% and -5.496%.

Result for COCc1cnc2n1CCN(C1CCCC1)C2C.O=C(O)C(F)(F)F (stereo not given) was Mtb cholesterol medium: -17.16%; Mtb glucose medium: -3.248% and -4.306%. With CCN1CCC(N2C[C@@H](C(=O)O)[C@H](c3cccc(OC)c3)C2)CC1 the screen gave Mtb cholesterol medium: -1.929% and -11.35%; Mtb glucose medium: 9.99%. For COCC(=O)N1CCN(C)C(=O)C(Cc2ccccc2-c2cccs2)C1 (stereo not given) the result was Mtb cholesterol medium: -5.757%; Mtb glucose medium: -11.12%. CC(C)CC(NC(=O)c1ccn(C)c(=O)c1)c1ccccc1 (stereo not given) read Mtb cholesterol medium: -40.53%; Mtb glucose medium: 3.862%. O=C(C1CC1)N1CCN(Cc2coc(-c3ccc(Cl)cc3)n2)CC1 read Mtb cholesterol medium: 4.606%; Mtb glucose medium: 35.83%.

Repeated from the top, 5 entries:

compound,Mtb cholesterol medium,Mtb glucose medium
Cc1cn2c(n1)C(CNCc1cnn3ccccc13)CCC2 (stereo not given),14.63%,-3.933% and -1.367%
O=C(O)C(F)(F)F.O=C(O)C(F)(F)F.O[C@@H]1CCN(CC2CCOC2)[C@H]1Cc1cccnc1 (stereo not given in full),3.194%,4.085% and -5.95%
Cc1ccc(CNC(c2ccccc2)c2nccn2C)cc1.Cl (stereo not given),12.96%,5.191%
Cc1ccc(C(=O)N2CCSCC2)cc1NC(=O)NCCO,-22.94%,-11.56%
CCC[C@H]1CN(S(C)(=O)=O)C[C@@H]1NC(=O)c1ccc(COC)cc1,17.4%,-1.353%